These are yes or no findings as the source states them, for the method shown. Some results given as binding are weak or reduced against the parent protein; the word gives no strength.
Target: T1, mouse CP2c protein (mouse) (UniProt Q9ERA0)
T1 sequence (looked up): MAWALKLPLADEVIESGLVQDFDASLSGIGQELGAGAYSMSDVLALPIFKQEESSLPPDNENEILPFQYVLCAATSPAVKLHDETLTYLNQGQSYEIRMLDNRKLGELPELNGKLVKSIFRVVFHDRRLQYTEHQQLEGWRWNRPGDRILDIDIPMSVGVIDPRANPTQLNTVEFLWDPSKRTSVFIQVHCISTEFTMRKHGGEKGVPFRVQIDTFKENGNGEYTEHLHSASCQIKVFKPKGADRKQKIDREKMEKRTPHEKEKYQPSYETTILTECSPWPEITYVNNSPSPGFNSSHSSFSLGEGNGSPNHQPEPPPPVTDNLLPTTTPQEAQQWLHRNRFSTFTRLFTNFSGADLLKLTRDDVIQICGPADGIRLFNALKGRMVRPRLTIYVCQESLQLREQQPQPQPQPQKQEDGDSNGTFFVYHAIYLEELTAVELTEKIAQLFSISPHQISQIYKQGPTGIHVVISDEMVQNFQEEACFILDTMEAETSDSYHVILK
Assay: phage display

binding: binds
Binder: HERRESNYPQRP [Peptide 5]
